PubChem BioAssay AID1259405 | NCATS – 2018

- Test: 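Knock-downs that lift recombinant protein yield in hamster ovary cells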 (primary screen)
- Cell system: Chinese hamster CHO-K1 ovary cells with stable secreted eGFP expression
- Knock-down reagent: single siRNA against mouse genes, 0.8 pmol siRNA per well (2 µl of 400 nM stock)
- Duration: 3 days
- Detection: 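Percent of the per-plate non-targeting control median for intracellular GFP per well by laser scanning cytometry and for cell viability by ATP luminescence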
- Reading the numbers: GFP, % of control: higher = more GFP per well, higher productivity; viability (ATP), % of control: higher = more viable cells (more ATP)
- Active means: 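a knock-down is called active if GFP reaches 120% or more of non-targeting control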
Shown is one part, drawn at random, of about 50,000 reagents tested. In the full data, about 4,000 (8%) are marked active. 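Mouse siRNA library applied to hamster cells; one well for each siRNA.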 Reagents against one gene are numbered here.

Zswim6 (zinc finger SWIM-type containing 6) #1 | GFP, % of control: 66.2; viability (ATP), % of control: 65.3; Call: inactive
Zswim6 (zinc finger SWIM-type containing 6) #2 | GFP, % of control: 88.1; viability (ATP), % of control: 50.3; Call: inactive
Zswim6 (zinc finger SWIM-type containing 6) #3 | GFP, % of control: 96.9; viability (ATP), % of control: 84.4; Call: inactive
Ankrd34a (ankyrin repeat domain 34A) #1 | GFP, % of control: 54.1; viability (ATP), % of control: 68.7; Call: inactive
Ankrd34a (ankyrin repeat domain 34A) #2 | GFP, % of control: 54.1; viability (ATP), % of control: 92.1; Call: inactive
Ankrd34a (ankyrin repeat domain 34A) #3 | GFP, % of control: 79.9; viability (ATP), % of control: 33.4; Call: inactive
Xlr3c (X-linked lymphocyte-regulated 3C) #1 | GFP, % of control: 134; viability (ATP), % of control: 62.4; Call: active
Xlr3c (X-linked lymphocyte-regulated 3C) #2 | GFP, % of control: 104; viability (ATP), % of control: 88.5; Call: inactive
Xlr3c (X-linked lymphocyte-regulated 3C) #3 | GFP, % of control: 83.8; viability (ATP), % of control: 102; Call: inactive
Spam1 (sperm adhesion molecule 1) #1 | GFP, % of control: 57.1; viability (ATP), % of control: 31; Call: inactive
Spam1 (sperm adhesion molecule 1) #2 | GFP, % of control: 86.6; viability (ATP), % of control: 89.5; Call: inactive
Spam1 (sperm adhesion molecule 1) #3 | GFP, % of control: 57.4; viability (ATP), % of control: 42.2; Call: inactive
Mrpl32 (mitochondrial ribosomal protein L32) #1 | GFP, % of control: 96; viability (ATP), % of control: 79.6; Call: inactive
Mrpl32 (mitochondrial ribosomal protein L32) #2 | GFP, % of control: 64.8; viability (ATP), % of control: 59.3; Call: inactive
Mrpl32 (mitochondrial ribosomal protein L32) #3 | GFP, % of control: 64.3; viability (ATP), % of control: 59.8; Call: inactive
Rorb (RAR-related orphan receptor beta) #1 | GFP, % of control: 107; viability (ATP), % of control: 41.9; Call: inactive
Rorb (RAR-related orphan receptor beta) #2 | GFP, % of control: 78.6; viability (ATP), % of control: 71.4; Call: inactive
Rorb (RAR-related orphan receptor beta) #3 | GFP, % of control: 82.5; viability (ATP), % of control: 68.2; Call: inactive
Neto1 (neuropilin (NRP) and tolloid (TLL)-like 1) #1 | GFP, % of control: 71; viability (ATP), % of control: 79.1; Call: inactive
Neto1 (neuropilin (NRP) and tolloid (TLL)-like 1) #2 | GFP, % of control: 133; viability (ATP), % of control: 80.8; Call: active
Or6s1 (olfactory receptor family 6 subfamily S member 1) #1 | GFP, % of control: 86.1; viability (ATP), % of control: 64.6; Call: inactive
Or6s1 (olfactory receptor family 6 subfamily S member 1) #2 | GFP, % of control: 106; viability (ATP), % of control: 111; Call: inactive
Or6s1 (olfactory receptor family 6 subfamily S member 1) #3 | GFP, % of control: 56.9; viability (ATP), % of control: 68.8; Call: inactive
Ccdc92 (coiled-coil domain containing 92) #1 | GFP, % of control: 69.9; viability (ATP), % of control: 66.1; Call: inactive
Ccdc92 (coiled-coil domain containing 92) #2 | GFP, % of control: 75.4; viability (ATP), % of control: 65.8; Call: inactive
Ccdc92 (coiled-coil domain containing 92) #3 | GFP, % of control: 60; viability (ATP), % of control: 39.7; Call: inactive
Vwa8 (von Willebrand factor A domain containing 8) #1 | GFP, % of control: 127; viability (ATP), % of control: 76.3; Call: active
Vwa8 (von Willebrand factor A domain containing 8) #2 | GFP, % of control: 83.5; viability (ATP), % of control: 55.1; Call: inactive
Vwa8 (von Willebrand factor A domain containing 8) #3 | GFP, % of control: 93.5; viability (ATP), % of control: 89.6; Call: inactive

A run of entries taken from the entries so far, for reference:
Mrpl32 (mitochondrial ribosomal protein L32) #1 | GFP, % of control: 96; viability (ATP), % of control: 79.6; Call: inactive
Mrpl32 (mitochondrial ribosomal protein L32) #2 | GFP, % of control: 64.8; viability (ATP), % of control: 59.3; Call: inactive
